Laboratory results from PMC5814169.
No constants are given. Whether binding was seen depends on the method and setting. In cells and extracts the contact can be indirect. Some binding calls cover weakened binding; strength is not graded here.

Amino acid sequences for entries named in this document (tags omitted).
UniProt Q99NH2: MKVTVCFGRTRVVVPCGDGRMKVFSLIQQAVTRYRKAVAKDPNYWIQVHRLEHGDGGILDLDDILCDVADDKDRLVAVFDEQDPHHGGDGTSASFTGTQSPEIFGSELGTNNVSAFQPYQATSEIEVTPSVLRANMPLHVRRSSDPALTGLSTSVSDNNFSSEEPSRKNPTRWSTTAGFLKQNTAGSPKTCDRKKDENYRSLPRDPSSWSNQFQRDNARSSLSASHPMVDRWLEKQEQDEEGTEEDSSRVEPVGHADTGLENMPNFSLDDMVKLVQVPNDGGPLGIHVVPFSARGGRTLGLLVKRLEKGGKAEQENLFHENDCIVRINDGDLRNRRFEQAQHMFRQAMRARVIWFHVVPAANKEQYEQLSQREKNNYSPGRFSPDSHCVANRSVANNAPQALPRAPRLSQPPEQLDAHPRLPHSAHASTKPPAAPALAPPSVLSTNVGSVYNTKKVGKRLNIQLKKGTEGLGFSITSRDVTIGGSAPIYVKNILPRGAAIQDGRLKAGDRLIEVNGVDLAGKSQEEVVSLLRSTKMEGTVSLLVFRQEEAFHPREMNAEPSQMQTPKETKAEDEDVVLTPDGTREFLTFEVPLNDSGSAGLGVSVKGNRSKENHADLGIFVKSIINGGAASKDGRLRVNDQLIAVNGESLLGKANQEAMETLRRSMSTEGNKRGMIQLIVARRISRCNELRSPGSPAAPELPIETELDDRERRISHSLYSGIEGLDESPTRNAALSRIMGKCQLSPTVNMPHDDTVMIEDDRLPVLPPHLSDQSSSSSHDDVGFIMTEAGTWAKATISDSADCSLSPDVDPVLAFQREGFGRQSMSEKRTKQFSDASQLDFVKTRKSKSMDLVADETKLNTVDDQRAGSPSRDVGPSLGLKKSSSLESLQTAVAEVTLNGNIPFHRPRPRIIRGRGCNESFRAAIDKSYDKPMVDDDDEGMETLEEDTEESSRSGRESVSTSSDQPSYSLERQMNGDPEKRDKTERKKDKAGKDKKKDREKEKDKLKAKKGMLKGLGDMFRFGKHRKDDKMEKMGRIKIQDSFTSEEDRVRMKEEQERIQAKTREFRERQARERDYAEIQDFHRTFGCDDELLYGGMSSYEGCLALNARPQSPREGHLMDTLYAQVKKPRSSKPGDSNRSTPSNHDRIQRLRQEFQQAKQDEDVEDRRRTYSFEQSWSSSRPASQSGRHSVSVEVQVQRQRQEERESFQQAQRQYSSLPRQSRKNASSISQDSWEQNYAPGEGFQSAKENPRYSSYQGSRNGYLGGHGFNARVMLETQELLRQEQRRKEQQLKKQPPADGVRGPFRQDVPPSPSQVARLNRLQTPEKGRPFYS

Target: endogenous Par3 (180 kD isoform) of NMuMG cells (mouse (endogenous in NMuMG)) (UniProt Q99NH2)
Experiment: co-IP; NMuMG cells transfected with WT or K56R SIK; immunoprecipitation with a Par3-specific antibody (endogenous Par3); blot for SIK; cells treated with 5 ng/ml TGFβ or vehicle overnight

binding: binds
B1: SIK K56R, kinase-inactive mutant, transfected in NMuMG cells (enzyme, UniProt P57059 1-783)
chain: MVIMSEFSADPAGQGQGQQKPLRVGFYDIERTLGKGNFAVVKLARHRVTKTQVAIRIIDKTRLDSSNLEKIYREVQLMKLLNHPHIIKLYQVMETKDMLYIVTEFAKNGEMFDYLTSNGHLSENEARKKFWQILSAVEYCHDHHIVHRDLKTENLLLDGNMDIKLADFGFGNFYKSGEPLSTWCGSPPYAAPEVFEGKEYEGPQLDIWSLGVVLYVLVCGSLPFDGPNLPTLRQRVLEGRFRIPFFMSQDCESLIRRMLVVDPARRITIAQIRQHRWMRAEPCLPGPACPAFSAHSYTSNLGDYDEQALGIMQTLGVDRQRTVESLQNSSYNHFAAIYYLLLERLKEYRNAQCARPGPARQPRPRSSDLSGLEVPQEGLSTDPFRPALLCPQPQTLVQSVLQAEMDCELQSSLQWPLFFPVDASCSGVFRPRPVSPSSLLDTAISEEARQGPGLEEEQDTQESLPSSTGRRHTLAEVSTRLSPLTAPCIVVSPSTTASPAEGTSSDSCLTFSASKSPAGLSGTPATQGLLGACSPVRLASPFLGSQSATPVLQAQGGLGGAVLLPVSFQEGRRASDTSLTQGLKAFRQQLRKTTRTKGFLGLNKIKGLARQVCQAPASRASRGGLSPFHAPAQSPGLHGGAAGSREGWSLLEEVLEQQRLLQLQHHPAAAPGCSQAPQPAPAPFVIAPCDGPGAAPLPSTLLTSGLPLLPPPLLQTGASPVASAAQLLDTHLHIGTGPTALPAVPPPRLARLAPGCEPLGLLQGDCEMEDLMPCSLGTFVLVQ
